{
  "source": "patent US20220110903A1",
  "about": "“COMPOSITIONS AND METHODS FOR PREVENTING, ALLEVIATING, AND TREATING NEUROLOGICAL INJURY FOLLOWING HEAD TRAUMA” (Struct Nutrition, LLC, priority 2017, published 2022)",
  "origin": "cited, not measured here",
  "key": {"Neuronal stem cells": {"tested_on": "Neuronal stem cells", "conditions": "associated with enhanced 2-AG and p-p38 MAPK"}},
  "note": "For at least one compound, name, drawing or mass did not settle the structure.",
  "data": [
    {"smiles": "CC/C=C\\C/C=C\\C/C=C\\C/C=C\\C/C=C\\C/C=C\\CCC(=O)O", "note": "[DHA, Docosahexaenoic acid]", "values": [
      {"measurement": "proliferation of Neuronal stem cells compared to controls", "setting": "Neuronal stem cells", "value": "not"},
      {"measurement": "oxidation of [1-14C]palmitic acid", "setting": "cultured rat hepatocytes", "value": "reduced"}
    ]},
    {"smiles": "CC/C=C\\C/C=C\\C/C=C\\C/C=C\\C/C=C\\CCCC(=O)O", "note": "[EPA, Eicosapentaenoic acid]", "values": [
      {"measurement": "proliferation of Neuronal stem cells compared to controls", "setting": "Neuronal stem cells", "value": "significantly increased"},
      {"measurement": "oxidation of [1-14C]palmitic acid", "setting": "cultured rat hepatocytes", "value": "stimulated"}
    ]}
  ]
}
